These are yes or no findings as the source states them, for the method shown. Binding seen in cells or lysates may run through a third protein. Some binding calls cover weakened binding; strength is not graded here. Sequences can lack the tags named with a protein.
Columns and labels:
[1] = target: T1, Smc3(K38I, K198C)-HaloTag (S. cerevisiae) (UniProt P47037); test: cross-linking
T1 sequence: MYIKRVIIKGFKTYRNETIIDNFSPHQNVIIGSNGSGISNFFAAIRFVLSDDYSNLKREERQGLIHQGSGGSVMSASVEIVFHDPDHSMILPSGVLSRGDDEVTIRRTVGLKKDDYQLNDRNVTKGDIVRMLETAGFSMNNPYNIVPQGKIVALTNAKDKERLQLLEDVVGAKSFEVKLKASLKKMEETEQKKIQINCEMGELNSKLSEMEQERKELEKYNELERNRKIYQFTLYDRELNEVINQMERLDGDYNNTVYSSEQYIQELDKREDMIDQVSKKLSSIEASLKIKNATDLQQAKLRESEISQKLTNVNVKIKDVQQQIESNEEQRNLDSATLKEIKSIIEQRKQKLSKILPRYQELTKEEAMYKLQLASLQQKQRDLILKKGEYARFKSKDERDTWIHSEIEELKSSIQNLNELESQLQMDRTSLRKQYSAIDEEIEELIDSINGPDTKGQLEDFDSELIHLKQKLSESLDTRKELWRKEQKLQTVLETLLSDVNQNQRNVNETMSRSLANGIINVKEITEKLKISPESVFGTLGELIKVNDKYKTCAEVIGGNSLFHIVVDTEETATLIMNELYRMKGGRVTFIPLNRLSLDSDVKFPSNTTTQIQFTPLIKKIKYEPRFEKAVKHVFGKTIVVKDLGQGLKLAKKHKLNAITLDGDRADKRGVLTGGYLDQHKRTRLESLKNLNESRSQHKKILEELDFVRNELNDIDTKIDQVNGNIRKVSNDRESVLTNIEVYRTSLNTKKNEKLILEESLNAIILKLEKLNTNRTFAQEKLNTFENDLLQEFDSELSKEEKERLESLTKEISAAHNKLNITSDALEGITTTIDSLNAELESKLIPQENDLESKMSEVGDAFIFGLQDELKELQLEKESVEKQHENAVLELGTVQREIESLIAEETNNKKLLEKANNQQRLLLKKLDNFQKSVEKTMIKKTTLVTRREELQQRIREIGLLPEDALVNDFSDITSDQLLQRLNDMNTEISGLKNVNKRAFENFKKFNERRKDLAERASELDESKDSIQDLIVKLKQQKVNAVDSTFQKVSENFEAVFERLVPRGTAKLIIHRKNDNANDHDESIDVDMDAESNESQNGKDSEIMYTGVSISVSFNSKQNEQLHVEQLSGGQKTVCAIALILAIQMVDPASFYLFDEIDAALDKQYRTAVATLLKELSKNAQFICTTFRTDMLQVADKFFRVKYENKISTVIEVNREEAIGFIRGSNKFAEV

[2] = target: T2, Smc3(K198C)-HaloTag (S. cerevisiae) (UniProt P47037); test: cross-linking
T2 sequence: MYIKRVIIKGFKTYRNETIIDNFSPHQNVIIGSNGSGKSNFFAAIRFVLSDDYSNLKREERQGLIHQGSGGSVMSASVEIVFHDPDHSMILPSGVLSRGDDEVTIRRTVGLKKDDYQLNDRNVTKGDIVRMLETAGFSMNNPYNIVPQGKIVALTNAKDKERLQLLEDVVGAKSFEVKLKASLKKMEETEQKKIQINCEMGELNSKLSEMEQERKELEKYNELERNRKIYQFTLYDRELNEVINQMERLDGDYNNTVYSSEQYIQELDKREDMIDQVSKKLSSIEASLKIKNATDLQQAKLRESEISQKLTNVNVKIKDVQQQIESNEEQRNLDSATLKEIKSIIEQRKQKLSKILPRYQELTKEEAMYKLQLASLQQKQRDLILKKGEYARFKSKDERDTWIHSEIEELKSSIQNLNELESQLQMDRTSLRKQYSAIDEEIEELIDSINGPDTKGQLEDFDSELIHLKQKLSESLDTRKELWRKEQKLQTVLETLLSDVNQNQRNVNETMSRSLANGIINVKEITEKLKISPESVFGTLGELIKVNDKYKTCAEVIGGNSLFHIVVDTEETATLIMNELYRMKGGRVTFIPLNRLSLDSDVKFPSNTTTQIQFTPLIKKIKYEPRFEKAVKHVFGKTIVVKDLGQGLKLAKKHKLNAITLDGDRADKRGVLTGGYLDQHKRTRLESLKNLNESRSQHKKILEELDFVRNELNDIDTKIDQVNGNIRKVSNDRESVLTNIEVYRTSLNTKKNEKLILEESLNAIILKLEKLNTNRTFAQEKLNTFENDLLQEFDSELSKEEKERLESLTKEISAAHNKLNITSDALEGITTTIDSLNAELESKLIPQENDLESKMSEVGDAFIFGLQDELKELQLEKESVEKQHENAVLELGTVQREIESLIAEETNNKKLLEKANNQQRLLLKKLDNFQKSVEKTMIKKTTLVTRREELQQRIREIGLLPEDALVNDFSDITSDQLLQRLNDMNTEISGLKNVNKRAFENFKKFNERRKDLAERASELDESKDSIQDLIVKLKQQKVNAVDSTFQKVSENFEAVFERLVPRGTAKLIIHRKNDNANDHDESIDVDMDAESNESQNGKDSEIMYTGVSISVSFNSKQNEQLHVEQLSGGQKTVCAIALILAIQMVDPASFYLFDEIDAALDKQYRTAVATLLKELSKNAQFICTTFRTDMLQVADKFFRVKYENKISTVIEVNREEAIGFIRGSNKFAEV

binding [1]: binds | binding [2]: binds
B1: Smc1(K201C) (protein, UniProt P32908 1-1225)
chain: MGRLVGLELSNFKSYRGVTKVGFGESNFTSIIGPNGSGKSNMMDAISFVLGVRSNHLRSNILKDLIYRGVLNDENSDDYDNEGAASSNPQSAYVKAFYQKGNKLVELMRIISRNGDTSYKIDGKTVSYKDYSIFLENENILIKAKNFLVFQGDVEQIAAQSPVELSRMFEEVSGSIQYKKEYEELKEKIEKLSKSATESICNRRRIHGELKTYKEGINKNEEYRKQLDKKNELQKFQALWQLYHLEQQKEELTDKLSALNSEISSLKGKINNEMKSLQRSKSSFVKESAVISKQKSKLDYIFKDKEKLVSDLRLIKVPQQAAGKRISHIEKRIESLQKDLQRQKTYVERFETQLKVVTRSKEAFEEEIKQSARNYDKFKLNENDLKTYNCLHEKYLTEGGSILEEKIAVLNNDKREIQEELERFNKRADISKRRITEELSITGEKLDTQLNDLRVSLNEKNALHTERLHELKKLQSDIESANNQEYDLNFKLRETLVKIDDLSANQRETMKERKLRENIAMLKRFFPGVKGLVHDLCHPKKEKYGLAVSTILGKNFDSVIVENLTVAQECIAFLKKQRAGTASFIPLDTIETELPTLSLPDSQDYILSINAIDYEPEYEKAMQYVCGDSIICNTLNIAKDLKWKKGIRGKLVTIEGALIHKAGLMTGGISGDANNRWDKEEYQSLMSLKDKLLIQIDELSNGQRSNSIRAREVENSVSLLNSDIANLRTQVTQQKRSLDENRLEIKYHNDLIEKEIQPKITELKKKLDDLENTKDNLVKEKEALQNNIFKEFTSKIGFTIKEYENHSGELMRQQSKELQQLQKQILTVENKLQFETDRLSTTQRRYEKAQKDLENAQVEMKSLEEQEYAIEMKIGSIESKLEEHKNHLDELQKKFVTKQSELNSSEDILEDMNSNLQVLKRERDGIKEDIEKFDLERVTALKNCKISNINIPISSETTIDDLPISSTDNEAITISNSIDINYKGLPKKYKENNTDSARKELEQKIHEVEEILNELQPNARALERYDEAEGRFEVINNETEQLKAEEKKILNQFLKIKKKRKELFEKTFDYVSDHLDAIYRELTKNPNSNVELAGGNASLTIEDEDEPFNAGIKYHATPPLKRFKDMEYLSGGEKTVAALALLFAINSYQPSPFFVLDEVDAALDITNVQRIAAYIRRHRNPDLQFIVISLKNTMFEKSDALVGVYRQQQENSSKIITLDLSNYAE
